In article PMC11589570, “Critical assessment of LC3/GABARAP ligands used for degrader development and ligandability of LC3/GABARAP binding pockets” (Nature Communications, 2024):
Values joined by “and” are separate entries in the source; they are usually repeats but may differ in a detail not shown here. Equal values may be shown once. This continues a long series; more values of the same kind are listed elsewhere.

Tested on: RPE1 cells
Experiment: Cell growth assay (IncuCyte confluence over 72 h)
Type: cell-based
Protocol: Cell growth assay: Cell confluence (phase) from RPE1 (hTERT RPE-1, ATCC CLR_4000) or U2OS (ATCC, HTB-96) cell lines were monitored over time with the IncuCyte S3 (Sartiorius, Germany) in 384-well plates in 50 ul DMEM media, supplemented with 10% Fetal Bovine Serum (FBS) 1% penicillin/Streptomycin and incubated 24 h before treatment. Experiment was performed as described in Cano-Franco et al.. 50 μl of media containing either 2× final concentration of indicated compounds in or control compounds (final conc.: 0.1% DMSO, 250 nM Torin1, 200 ng/mL Bafilomycin) were added and images were taken every two hours over 72 h. Cell confluence is represented as % of area covered by cells. Each data point represents the average ratio or confluence obtained from three individual wells of the plate.

O=C1CC(c2ccc(Cl)c(Cl)c2)CC(=O)C1=CNCCN1CCNCC1 (stereo not drawn) [Cov-3]
RPE1 cell growth (100 nM, 16 h): 27 and 37 and 22
RPE1 cell growth (100 nM, 18 h): 26 and 40 and 21
RPE1 cell growth (100 nM, 20 h): 26 and 45 and 24
RPE1 cell growth (100 nM, 22 h): 27 and 46 and 25
RPE1 cell growth (100 nM, 24 h): 28 and 51 and 26
RPE1 cell growth (100 nM, 28 h): 35 and 60 and 30
RPE1 cell growth (100 nM, 32 h): 39 and 67 and 35
RPE1 cell growth (100 nM, 34 h): 42 and 71 and 39
RPE1 cell growth (100 nM, 36 h): 44 and 75 and 39
RPE1 cell growth (100 nM, 38 h): 46 and 81 and 45
RPE1 cell growth (100 nM, 40 h): 50 and 85 and 48
RPE1 cell growth (100 nM, 42 h): 57 and 88 and 49
RPE1 cell growth (100 nM, 44 h): 62 and 91 and 53
RPE1 cell growth (100 nM, 46 h): 62 and 94 and 60
RPE1 cell growth (100 nM, 48 h): 65 and 96 and 66
RPE1 cell growth (100 nM, 50 h): 74 and 97 and 65
RPE1 cell growth (100 nM, 52 h): 79 and 99 and 71
RPE1 cell growth (100 nM, 54 h): 82 and 99 and 76
RPE1 cell growth (100 nM, 56 h): 82 and 100 and 79
RPE1 cell growth (100 nM, 58 h): 90 and 100 and 83
RPE1 cell growth (100 nM, 60 h): 92 and 100 and 87
RPE1 cell growth (100 nM, 62 h): 94 and 100 and 86
RPE1 cell growth (100 nM, 66 h): 97 and 100 and 95
RPE1 cell growth (100 nM, 68 h): 98 and 100 and 95
RPE1 cell growth (100 nM, 70 h): 97 and 100 and 98
RPE1 cell growth (100 nM, 72 h): 100 and 99
RPE1 cell growth (500 nM, 16 h): 28 and 40 and 22
RPE1 cell growth (500 nM, 18 h): 28 and 43 and 23
RPE1 cell growth (500 nM, 20 h): 29 and 47 and 25
RPE1 cell growth (500 nM, 22 h): 30 and 48 and 27
RPE1 cell growth (500 nM, 24 h): 31 and 53 and 27
RPE1 cell growth (500 nM, 26 h): 34 and 56 and 31
RPE1 cell growth (500 nM, 28 h): 37 and 62 and 35
RPE1 cell growth (500 nM, 30 h): 37 and 65 and 35
RPE1 cell growth (500 nM, 32 h): 42 and 70 and 38
RPE1 cell growth (500 nM, 34 h): 45 and 73 and 43
RPE1 cell growth (500 nM, 36 h): 48 and 77 and 44
RPE1 cell growth (500 nM, 38 h): 51 and 81 and 50
RPE1 cell growth (500 nM, 40 h): 56 and 85 and 54
RPE1 cell growth (500 nM, 42 h): 60 and 89 and 57
RPE1 cell growth (500 nM, 44 h): 65 and 92 and 62
RPE1 cell growth (500 nM, 46 h): 67 and 95 and 66
RPE1 cell growth (500 nM, 48 h): 70 and 97 and 67
RPE1 cell growth (500 nM, 50 h): 76 and 98 and 75
RPE1 cell growth (500 nM, 52 h): 81 and 99 and 78
RPE1 cell growth (500 nM, 54 h): 85 and 99 and 83
RPE1 cell growth (500 nM, 56 h): 87 and 100 and 86
RPE1 cell growth (500 nM, 58 h): 91 and 100 and 89
RPE1 cell growth (500 nM, 60 h): 94 and 100 and 92
RPE1 cell growth (500 nM, 62 h): 95 and 100 and 92
RPE1 cell growth (500 nM, 66 h): 98 and 100 and 97
RPE1 cell growth (500 nM, 68 h): 99 and 100
RPE1 cell growth (500 nM, 70 h): 99 and 100 and 98
RPE1 cell growth (500 nM, 72 h): 100
RPE1 cell growth (1 uM, 14 h): 20 and 21 and 38
RPE1 cell growth (1 uM, 16 h): 22 and 24 and 39
RPE1 cell growth (1 uM, 18 h): 22 and 25 and 43
RPE1 cell growth (1 uM, 20 h): 25 and 26 and 46
RPE1 cell growth (1 uM, 22 h): 26 and 27 and 49
RPE1 cell growth (1 uM, 24 h): 28 and 29 and 53
RPE1 cell growth (1 uM, 26 h): 31 and 32 and 57
RPE1 cell growth (1 uM, 28 h): 34 and 61
RPE1 cell growth (1 uM, 30 h): 37 and 36 and 66
RPE1 cell growth (1 uM, 32 h): 40 and 39 and 71
RPE1 cell growth (1 uM, 34 h): 43 and 74
RPE1 cell growth (1 uM, 36 h): 45 and 46 and 77
RPE1 cell growth (1 uM, 38 h): 48 and 82
RPE1 cell growth (1 uM, 40 h): 53 and 52 and 87
RPE1 cell growth (1 uM, 42 h): 56 and 55 and 90
RPE1 cell growth (1 uM, 44 h): 61 and 62 and 93
RPE1 cell growth (1 uM, 46 h): 65 and 96
RPE1 cell growth (1 uM, 48 h): 69 and 67 and 98
RPE1 cell growth (1 uM, 50 h): 72 and 74 and 99
RPE1 cell growth (1 uM, 52 h): 78 and 77 and 99
RPE1 cell growth (1 uM, 54 h): 81 and 82 and 100
RPE1 cell growth (1 uM, 56 h): 84 and 86 and 100
RPE1 cell growth (1 uM, 58 h): 87 and 89 and 100
RPE1 cell growth (1 uM, 60 h): 90 and 93 and 100
RPE1 cell growth (1 uM, 62 h): 92 and 94 and 100
RPE1 cell growth (1 uM, 64 h): 95 and 96 and 67
RPE1 cell growth (1 uM, 66 h): 98 and 100
RPE1 cell growth (1 uM, 68 h): 99 and 98 and 100
RPE1 cell growth (1 uM, 70 h): 99 and 100
RPE1 cell growth (1 uM, 72 h): 99 and 100
RPE1 cell growth (3 uM, 14 h): 28 and 34 and 22
RPE1 cell growth (3 uM, 16 h): 31 and 36 and 23
RPE1 cell growth (3 uM, 18 h): 33 and 39 and 24
RPE1 cell growth (3 uM, 20 h): 33 and 44 and 28
RPE1 cell growth (3 uM, 22 h): 34 and 44 and 28
RPE1 cell growth (3 uM, 24 h): 36 and 50 and 30
RPE1 cell growth (3 uM, 26 h): 39 and 54 and 33
RPE1 cell growth (3 uM, 28 h): 42 and 58 and 37
RPE1 cell growth (3 uM, 30 h): 44 and 61 and 39
RPE1 cell growth (3 uM, 32 h): 48 and 67 and 43
RPE1 cell growth (3 uM, 34 h): 52 and 71 and 47
RPE1 cell growth (3 uM, 36 h): 57 and 74 and 51
RPE1 cell growth (3 uM, 38 h): 59 and 79 and 54
RPE1 cell growth (3 uM, 40 h): 62 and 84 and 58
RPE1 cell growth (3 uM, 42 h): 66 and 88 and 62
RPE1 cell growth (3 uM, 44 h): 72 and 91 and 67
RPE1 cell growth (3 uM, 46 h): 74 and 95 and 71
RPE1 cell growth (3 uM, 48 h): 78 and 96 and 75
RPE1 cell growth (3 uM, 50 h): 83 and 98 and 78
RPE1 cell growth (3 uM, 52 h): 87 and 99 and 83
RPE1 cell growth (3 uM, 54 h): 90 and 99 and 86
RPE1 cell growth (3 uM, 56 h): 92 and 100 and 89
RPE1 cell growth (3 uM, 58 h): 95 and 100 and 93
RPE1 cell growth (3 uM, 60 h): 97 and 100 and 95
RPE1 cell growth (3 uM, 62 h): 97 and 100 and 96
RPE1 cell growth (3 uM, 64 h): 98
RPE1 cell growth (3 uM, 66 h): 99 and 100
RPE1 cell growth (3 uM, 68 h): 99 and 100
RPE1 cell growth (3 uM, 70 h): 99 and 100
RPE1 cell growth (3 uM, 72 h): 100
RPE1 cell growth (5 uM, 14 h): 25 and 35 and 22
RPE1 cell growth (5 uM, 16 h): 27 and 35 and 24
RPE1 cell growth (5 uM, 18 h): 28 and 39 and 25
RPE1 cell growth (5 uM, 20 h): 29 and 43 and 26
RPE1 cell growth (5 uM, 22 h): 32 and 44 and 27
RPE1 cell growth (5 uM, 24 h): 33 and 49 and 30
RPE1 cell growth (5 uM, 26 h): 35 and 51 and 32
RPE1 cell growth (5 uM, 28 h): 36 and 56
RPE1 cell growth (5 uM, 30 h): 39 and 62
RPE1 cell growth (5 uM, 32 h): 42 and 67
RPE1 cell growth (5 uM, 34 h): 45 and 71 and 46
RPE1 cell growth (5 uM, 36 h): 47 and 73 and 49
RPE1 cell growth (5 uM, 38 h): 50 and 78 and 52
RPE1 cell growth (5 uM, 40 h): 54 and 82 and 57
RPE1 cell growth (5 uM, 42 h): 58 and 85 and 60
RPE1 cell growth (5 uM, 44 h): 61 and 90 and 64
RPE1 cell growth (5 uM, 46 h): 65 and 93 and 68
RPE1 cell growth (5 uM, 48 h): 70 and 96 and 73
RPE1 cell growth (5 uM, 50 h): 74 and 98 and 76
RPE1 cell growth (5 uM, 52 h): 79 and 99 and 81
RPE1 cell growth (5 uM, 54 h): 83 and 99 and 87
RPE1 cell growth (5 uM, 56 h): 85 and 100 and 89
RPE1 cell growth (5 uM, 58 h): 89 and 100 and 92
RPE1 cell growth (5 uM, 60 h): 92 and 100 and 94
RPE1 cell growth (5 uM, 62 h): 93 and 100 and 96
RPE1 cell growth (5 uM, 64 h): 96 and 100 and 98
RPE1 cell growth (5 uM, 66 h): 98 and 100 and 99
RPE1 cell growth (5 uM, 68 h): 99 and 100
RPE1 cell growth (5 uM, 70 h): 99 and 100
RPE1 cell growth (5 uM, 72 h): 100
RPE1 cell growth (10 uM, 14 h): 27 and 35 and 25
RPE1 cell growth (10 uM, 16 h): 29 and 34 and 27
RPE1 cell growth (10 uM, 18 h): 30 and 38 and 27
RPE1 cell growth (10 uM, 20 h): 33 and 41 and 30
RPE1 cell growth (10 uM, 22 h): 34 and 43 and 30
RPE1 cell growth (10 uM, 24 h): 36 and 47 and 34
RPE1 cell growth (10 uM, 26 h): 39 and 51 and 36
RPE1 cell growth (10 uM, 28 h): 41 and 56
RPE1 cell growth (10 uM, 30 h): 42 and 59 and 44
RPE1 cell growth (10 uM, 32 h): 46 and 64 and 47
RPE1 cell growth (10 uM, 34 h): 50 and 68 and 51
RPE1 cell growth (10 uM, 36 h): 53 and 72
RPE1 cell growth (10 uM, 38 h): 56 and 77 and 58
RPE1 cell growth (10 uM, 40 h): 59 and 80 and 62
RPE1 cell growth (10 uM, 42 h): 63 and 83 and 66
RPE1 cell growth (10 uM, 44 h): 67 and 89 and 70
RPE1 cell growth (10 uM, 46 h): 71 and 92 and 75
RPE1 cell growth (10 uM, 48 h): 75 and 95 and 79
RPE1 cell growth (10 uM, 50 h): 79 and 97 and 82
RPE1 cell growth (10 uM, 52 h): 83 and 98 and 86
RPE1 cell growth (10 uM, 54 h): 87 and 99 and 90
RPE1 cell growth (10 uM, 56 h): 90 and 99 and 93
RPE1 cell growth (10 uM, 58 h): 93 and 99 and 95
RPE1 cell growth (10 uM, 60 h): 95 and 100 and 97
RPE1 cell growth (10 uM, 62 h): 96 and 100 and 98
RPE1 cell growth (10 uM, 64 h): 97 and 100 and 99
RPE1 cell growth (10 uM, 66 h): 98 and 100
RPE1 cell growth (10 uM, 68 h): 99 and 100
RPE1 cell growth (10 uM, 70 h): 99 and 100
RPE1 cell growth (10 uM, 72 h): 100
